From publication PMC10439204
Results are given in words; binding and its absence hold for the method and conditions named. In cells and extracts the contact can be indirect.

Protein sequences, listed by entry. Tags and fused reporters are not part of them.
UniProt Q6GQQ9: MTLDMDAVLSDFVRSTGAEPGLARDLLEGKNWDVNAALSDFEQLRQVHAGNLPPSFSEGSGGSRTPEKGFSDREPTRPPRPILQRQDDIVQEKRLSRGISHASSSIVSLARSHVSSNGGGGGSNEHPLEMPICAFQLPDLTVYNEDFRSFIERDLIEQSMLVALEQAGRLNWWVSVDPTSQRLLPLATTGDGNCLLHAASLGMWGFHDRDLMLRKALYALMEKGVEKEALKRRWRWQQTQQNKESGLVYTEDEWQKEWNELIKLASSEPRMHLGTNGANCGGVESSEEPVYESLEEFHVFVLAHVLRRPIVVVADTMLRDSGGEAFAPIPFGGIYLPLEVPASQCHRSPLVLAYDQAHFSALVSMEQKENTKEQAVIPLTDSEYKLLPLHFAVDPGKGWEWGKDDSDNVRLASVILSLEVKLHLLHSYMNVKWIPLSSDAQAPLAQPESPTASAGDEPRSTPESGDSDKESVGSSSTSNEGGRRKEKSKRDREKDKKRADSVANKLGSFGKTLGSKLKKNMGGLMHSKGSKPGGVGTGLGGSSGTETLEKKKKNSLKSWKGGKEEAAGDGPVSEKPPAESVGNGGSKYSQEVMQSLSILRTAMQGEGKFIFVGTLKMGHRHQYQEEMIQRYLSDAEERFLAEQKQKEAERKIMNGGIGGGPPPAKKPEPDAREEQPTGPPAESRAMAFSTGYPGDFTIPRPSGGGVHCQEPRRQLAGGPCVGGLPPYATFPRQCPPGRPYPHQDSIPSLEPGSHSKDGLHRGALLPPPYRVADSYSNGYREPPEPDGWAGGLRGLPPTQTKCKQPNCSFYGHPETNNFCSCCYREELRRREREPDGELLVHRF
UniProt Q14457: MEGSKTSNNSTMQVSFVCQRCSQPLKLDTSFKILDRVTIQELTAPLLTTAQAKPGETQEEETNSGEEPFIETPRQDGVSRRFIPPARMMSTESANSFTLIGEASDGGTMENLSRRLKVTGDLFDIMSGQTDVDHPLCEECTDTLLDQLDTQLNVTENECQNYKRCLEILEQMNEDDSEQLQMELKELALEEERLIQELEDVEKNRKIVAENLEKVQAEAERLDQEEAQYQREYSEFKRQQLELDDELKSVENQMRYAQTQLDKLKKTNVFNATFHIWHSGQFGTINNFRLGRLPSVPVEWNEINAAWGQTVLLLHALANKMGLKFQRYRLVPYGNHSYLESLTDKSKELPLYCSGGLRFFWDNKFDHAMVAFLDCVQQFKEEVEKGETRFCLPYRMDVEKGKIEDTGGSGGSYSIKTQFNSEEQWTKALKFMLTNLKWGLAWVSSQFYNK

Biological target: Cellular zinc finger anti-NF-kappa-B protein (Cezanne) (human (endogenous in PC9 and Hek 293T)) (UniProt Q6GQQ9)
Test: co-IP; PC9 (Fig. 3B) and Hek 293T (Fig. 3C) cell lysates; protein G Plus-Agarose with primary antibody at 4 °C overnight, western blot; precipitating antibody not stated

binding: no binding
Substance: Beclin-1 (from UniProt Q14457 1-450)
